# Results: paper PMC7819943, “Rice protein-binding microarrays: a tool to detect cis-acting elements near promoter regions in rice”
# Amino acid sequences for entries named in this document (tags omitted).
# UniProt Q0JBA9, entry or part of it: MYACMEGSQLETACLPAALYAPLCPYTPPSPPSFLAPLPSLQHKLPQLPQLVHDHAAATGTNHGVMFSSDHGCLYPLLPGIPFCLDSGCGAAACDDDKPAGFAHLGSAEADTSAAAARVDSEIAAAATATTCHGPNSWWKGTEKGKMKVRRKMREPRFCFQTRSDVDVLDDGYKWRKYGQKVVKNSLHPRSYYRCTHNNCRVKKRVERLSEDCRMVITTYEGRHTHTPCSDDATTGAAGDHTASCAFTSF
# The list shows a part of the results.
# Molecular target: OsWRKY34 (Oryza sativa, UniProt Q0JBA9 1-250)
# Assay: protein-binding microarray (RPBM); PBS, 2% BSA, 51.3 ng/ul salmon testes DNA, 50 uM zinc acetate, 200 nM TF, 25 C, 1 h; high values mean tight binding
# Settings: protein: recombinant; tags: N-terminal polyhistidine and DsRed monomer fusion (pET32a); label: CyDye5-dUTP incorporated in the synthesized complementary strand; 3' TTTTT single-stranded linker to array surface; dsDNA, one strand shown
# How it was run: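 Per-feature fluorescence intensity (arbitrary units), read on an Axon 4000B scanner, is the binding signal. Transcription factors carrying an N-terminal polyhistidine tag and DsRed fusion were expressed in E. coli BL21-CodonPlus and purified on Ni–NTA. A custom Agilent array, made double-stranded by primer extension with Cy5-dUTP and blocked with 2% BSA, was incubated with 200 nM protein in PBS, 2% BSA, salmon testes DNA and 50 µM zinc acetate at 25 °C for 1 h and then washed.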
row,Sequence,binding signal
1,AGTAGGGCACGCAGTTGATGGGGTATGATTACACATGTTTCGGAGTCACCTAGTGCAG,9590 fluorescence intensity (a.u.)
2,ACCGCCTGCTTCTCGTCGCTCGTCCGCCATCACCGACCGCCGGAGTCACCTAGTGCAG,15500 fluorescence intensity (a.u.)
3,ACATTCTTCTCGCTTTCTCACGCCCTATATATACAAACAACGGAGTCACCTAGTGCAG,9390 fluorescence intensity (a.u.)
4,GCCGTCGCCTCGCGCCGCCACAGACGTCGCCGCCTCCGGCCGGAGTCACCTAGTGCAG,8140 fluorescence intensity (a.u.)
5,GTTAACACACGGTCAACCCATCATCTTCACACCTCTCAATCGGAGTCACCTAGTGCAG,10800 fluorescence intensity (a.u.)
6,CAATTTCTCGTTCGCTCTCACGTGCGCGTCGCATCTCCCTCGGAGTCACCTAGTGCAG,9070 fluorescence intensity (a.u.)
7,TTATATGTATAGGCATACACTTTGTATTTATATGTATATTCGGAGTCACCTAGTGCAG,8050 fluorescence intensity (a.u.)
8,GCTCTCGCCGCCGCCGCGGCGTCCTCGCTGCGGTCTTCTCCGGAGTCACCTAGTGCAG,9720 fluorescence intensity (a.u.)
9,CTATTATGGCTTCCTTAAAGTTGCACCCTTTTGTTTGCGCCGGAGTCACCTAGTGCAG,8910 fluorescence intensity (a.u.)
10,ATAGCATAATTCCATTGCCGTCCTATACGTTGACCAAATTCGGAGTCACCTAGTGCAG,13400 fluorescence intensity (a.u.)
11,TCTACAAACTTGGTCAAACTTAAAACAGTTTGACTTTGACCGGAGTCACCTAGTGCAG,14600 fluorescence intensity (a.u.)
12,GGGCTTAGCTCCACACAACACCTCTCATTTGGCATTTTTTCGGAGTCACCTAGTGCAG,9690 fluorescence intensity (a.u.)
13,AAGTTGGCCAAGCATCATTCTTGCTGTAAATCTATCTTGTCGGAGTCACCTAGTGCAG,8730 fluorescence intensity (a.u.)
14,GTGATCTTATGGCAATCTGAAGTCATTGTCGTATTTTTCTCGGAGTCACCTAGTGCAG,8390 fluorescence intensity (a.u.)
15,CCCGGTCTCTTGTTATACCTGTTACTCCTGGCCCGAAACGCGGAGTCACCTAGTGCAG,15400 fluorescence intensity (a.u.)
16,ATCTCAGCGTCTCTCTTCATCCTAATCACCTCGATCATTCCGGAGTCACCTAGTGCAG,10100 fluorescence intensity (a.u.)
17,TCTCTCTCTCTCCTTCGGCTCATTCGTCACTGTTCCACCGCGGAGTCACCTAGTGCAG,11300 fluorescence intensity (a.u.)
18,TGGTAAGCAGTTGTTTTTCTATGGCCATGTTGAGTGGATACGGAGTCACCTAGTGCAG,8390 fluorescence intensity (a.u.)
19,GTTTAGTTCCCAATTTTTTCTTTAAAATTTTAACTTTTTCCGGAGTCACCTAGTGCAG,8870 fluorescence intensity (a.u.)
20,GTGACCTTTTCTCGCGTGCGGATTGTATCTCCGGCTGCGCCGGAGTCACCTAGTGCAG,9890 fluorescence intensity (a.u.)
21,AGATGAGAGGTTTGGTTGGTTGGATGGTGGGGAGCGCCCGCGGAGTCACCTAGTGCAG,10400 fluorescence intensity (a.u.)

row,Sequence,binding signal
1,CCACAACATCGCCGAAGCAGTTCGCCATCTCTCGATCGATCGGAGTCACCTAGTGCAG,8100 fluorescence intensity (a.u.)
2,TCTATTCGTCCGTAAAAAACCAACATAGTATCGGATGTGACGGAGTCACCTAGTGCAG,8190 fluorescence intensity (a.u.)
3,GGTTAAAATGATAGAGGTGGTGTAGATGTGGTGTATTATACGGAGTCACCTAGTGCAG,8260 fluorescence intensity (a.u.)
4,CGCGGGGTCAGTTTTTAGCAGCAGCAGTACAGTAGTTGGCCGGAGTCACCTAGTGCAG,8300 fluorescence intensity (a.u.)
5,ATACTTGCTTATTCCTCCTCACCATTCCTACCACATCACACGGAGTCACCTAGTGCAG,8770 fluorescence intensity (a.u.)
6,GCAGAGTTTCCGGTTGCCACCGCACCCGTCATGCTTCTTCCGGAGTCACCTAGTGCAG,10300 fluorescence intensity (a.u.)
7,TTAATGTATGACGCCGTTGACTTTTTAATAAACGTTTGACCGGAGTCACCTAGTGCAG,40900 fluorescence intensity (a.u.)
8,CAACGGCGAATCAACGCCCGAACCGACTCTTTTATCTTTTCGGAGTCACCTAGTGCAG,9920 fluorescence intensity (a.u.)
9,GATTTGGTTTTTGGTGCCCTTCTCTTCTTCCATTTGCTCACGGAGTCACCTAGTGCAG,8850 fluorescence intensity (a.u.)
10,GGTCTCCACCCGCCAGCGTGATTGACTGTCCTTGGGCCCTCGGAGTCACCTAGTGCAG,8910 fluorescence intensity (a.u.)
11,CCGTCTCCGCCTCTCTCGCTCGCGCCGCCGGCCGCCGGCGCGGAGTCACCTAGTGCAG,9060 fluorescence intensity (a.u.)
12,CAGAATCTTATGTGCATCGCCCAATTATACTTGCCAATCTCGGAGTCACCTAGTGCAG,8360 fluorescence intensity (a.u.)
13,CACCACCACCTTGACTCCACGCACCGCCATCGACTCCTCACGGAGTCACCTAGTGCAG,9420 fluorescence intensity (a.u.)
14,TGTTCATGACTTTCTGGTCTTATCACCTCTTCAGCTCTTCCGGAGTCACCTAGTGCAG,10800 fluorescence intensity (a.u.)
15,ATGCTTGCCTTCTTCTTATTCTCCTTCCCTATGGTCTTCTCGGAGTCACCTAGTGCAG,8770 fluorescence intensity (a.u.)
16,ATATTTGTAGTACTTTTATGTTTTCGCTACTCCCTCCATACGGAGTCACCTAGTGCAG,8260 fluorescence intensity (a.u.)
17,GGTGTTCCGGCTCTCCGCACCACCGCGCCACGCCGCTCGCCGGAGTCACCTAGTGCAG,9180 fluorescence intensity (a.u.)
18,ATTGCTACGCGTGTTTGTATTGTGTGAGATTTTTGCATGTCGGAGTCACCTAGTGCAG,9740 fluorescence intensity (a.u.)
19,TGTTCGGTGGGCGAGGAGAGGAGTGGGTGGGAGTGGACTGCGGAGTCACCTAGTGCAG,8780 fluorescence intensity (a.u.)
20,TTCTATATAGACTCTAGTCTCCTCTTCTAATATTCCTTATCGGAGTCACCTAGTGCAG,8140 fluorescence intensity (a.u.)
21,TCCATCCATGTACATCGCCATCTTGCCGGTCAGCGTGCACCGGAGTCACCTAGTGCAG,14100 fluorescence intensity (a.u.)

# 2 records drawn at random from those above, as already listed:
row,Sequence,binding signal
8,CAACGGCGAATCAACGCCCGAACCGACTCTTTTATCTTTTCGGAGTCACCTAGTGCAG,9920 fluorescence intensity (a.u.)
17,GGTGTTCCGGCTCTCCGCACCACCGCGCCACGCCGCTCGCCGGAGTCACCTAGTGCAG,9180 fluorescence intensity (a.u.)
